The target in assay [1] is YgjD^F100E (Escherichia coli K-12) (UniProt P05852). Description: SEC; HiLoad 16/60 Superdex 75 pg; single proteins and equimolar mixture; both purified. (In gel filtration, larger molecules generally elute earlier.)
For assay [2], the target named is YgjD^S97E (Escherichia coli K-12) (UniProt P05852). The assay is described as above.
Assay [3] deals with YgjD^S97R (Escherichia coli K-12) (UniProt P05852). The assay is described as above.
Assay [4] has as its target YgjD^S97E (Escherichia coli K-12) (UniProt P05852). Briefly: ITC; YgjD as 'titrant' (20-30 uM), YeaZ as 'injectant' (200-360 uM); in absence of nucleotides (ADP or ATP); both purified. Background: In ITC the heat of successive injections is recorded.
Assay [5] concerns the target YgjD^F100E (Escherichia coli K-12) (UniProt P05852). Briefly: native gel or EMSA; 1.2% agarose native gel, 30 mM Tris–HCl pH 8.0, 50 mM glycine, on ice (ambient 8°C), Coomassie staining; no nucleotide added; molar ratio 1:1; both purified. Background: A gel shift assay detects complexes by their altered migration in electrophoresis.
Assay [6] deals with YgjD^S97E (Escherichia coli K-12) (UniProt P05852). Described as above.
Assay [7] deals with YgjD^S97R (Escherichia coli K-12) (UniProt P05852). Described as above.
Assay [8] deals with YgjD^S97E (Escherichia coli K-12) (UniProt P05852). Description: SEC + other: SAXS; HPLC gel filtration coupled to SAXS; in presence of 1.0 mM ATP and 2.0 mM MgCl2; YgjD–YeaZ and YjeE mixed 1:4; both purified.
Assay [9] concerns the target YeaZ (TsaB) (Escherichia coli K-12) (UniProt P76256). Description: native gel or EMSA; 1.2% agarose native gel, 30 mM Tris–HCl pH 8.0, 50 mM glycine, on ice (ambient 8°C), Coomassie staining; no nucleotide added; molar ratio 1:1; both purified.
Assay [10] addresses YgjD (TsaD) (Escherichia coli K-12) (UniProt P05852). The description is as above.

We go through five molecules from PMC4330362, “The ATP-mediated formation of the YgjD–YeaZ–YjeE complex is required for the biosynthesis of tRNA t^6A in Escherichia coli” (Nucleic Acids Research, 2015).

Results are given in words; binding and its absence hold for the method and conditions named.

YeaZ (TsaB) (from UniProt P76256 1-231): the binding result in [1], in assay [2], in [3], in assay [4], in [5] and in assay [6] was “no binding” each time. Also, the binding entry in assay [7] is on record as “no binding”.
With “YgjD^S97E (from UniProt P05852 1-337) (enzyme)”, the binding entry in assay [2] and in assay [8] was “no binding” each time.
For the molecule “YgjD^S97R (from UniProt P05852 1-337) (enzyme)”, the binding entry in [3] is “no binding”.
On to “YgjD^F100E (from UniProt P05852 1-337) (enzyme)”, for which the binding entry in assay [1] is given as “no binding”.

B1: YrdC (TsaC) (enzyme, UniProt P45748 1-190)
chain: MNNNLQRDAIAAAIDVLNEERVIAYPTEAVFGVGCDPDSETAVMRLLELKQRPVDKGLILIAANYEQLKPYIDDTMLTDVQRETIFSRWPGPVTFVFPAPATTPRWLTGRFDSLAVRVTDHPLVVALCQAYGKPLVSTSANLSGLPPCRTVDEVRAQFGAAFPVVPGETGGRLNPSEIRDALTGELFRQG
Turning to B1, the binding result in assay [9] and in assay [10] was “no binding” throughout.
